Laboratory results: publication PMC11607428, “Broadly conserved FlgV controls flagellar assembly and Borrelia burgdorferi dissemination in mice” (Nature Communications, 2024)
Results are given in words; binding and its absence hold for the method and conditions named. Some results given as binding are weak or reduced against the parent protein; the word gives no strength. For some assays here: Sequences can lack the tags named with a protein.

B1: FlgV (BB0268), B. burgdorferi (natural protein)
chain: MFISRELKYILLTSVSALFISAVLGLFCGLSFFTILVRSLLQFVFFFVIGLLIEYIFKKYLSNLFSTELSGNMENKPQDDKKSDKDFKENLDFQNKNSLYENSQNISSSGDFIEEVKKYKFETEDVSRGSDKNKKMSFIEDNDPKVVADAIKTLMSKKE
notes: FlgV (BB0268) of Borrelia burgdorferi B31; ORF of 480 bp; antigen for the antibody was amino acids 58-159; two predicted transmembrane helices (amino acids 13 to 35 and 40 to 57); native flgV ORF amplified from B. burgdorferi A3 genomic DNA for the overexpression plasmid; Untagged protein; Strains, plasmids and primers are in Supplementary Data 1; also called bb0268 gene product; previously …
B2: BB0268-3XFLAG (FlgV with a C-terminal 3XFLAG tag) (protein, UniProt Q44756 1-159)
chain: B1 chain

Columns and labels:
[1] = molecular target: FlgV (BB0268), B. burgdorferi (B. burgdorferi) (UniProt Q44756); assay: immunoblot after SDS-PAGE (higher molecular weight band); WT B. burgdorferi (PA001) lysed by sonication, fractionated by ultracentrifugation into soluble and membrane samples, Tris-Glycine gel, probed with anti-FlgV
[2] = molecular target: BB0268-3XFLAG (FlgV with a C-terminal 3XFLAG tag) (B. burgdorferi) (UniProt Q44756); assay: immunoblot after SDS-PAGE (higher molecular weight band); B. burgdorferi PA007 cells exposed to UV, lysed, BB0268-3XFLAG immunoprecipitated with anti-FLAG beads; total, supernatant and IP samples on a Tris-Glycine gel, probed with anti-FLAG

Row | Binder | binding [1] | binding [2]
1 | B1 | binds | 
2 | B2 |  | binds
